Measured values taken from patent publication US20220242961A1.
No constants are given. Whether binding was seen depends on the method and setting. Some results given as binding are weak or reduced against the parent protein; the word gives no strength. One block for each binder: values may come before it.

The chains behind the UniProt entries cited, without tags or fusion partners. Where a name states a change or a piece, a line headed by the entry shows the natural chain unless it says otherwise.
UniProt Q07011: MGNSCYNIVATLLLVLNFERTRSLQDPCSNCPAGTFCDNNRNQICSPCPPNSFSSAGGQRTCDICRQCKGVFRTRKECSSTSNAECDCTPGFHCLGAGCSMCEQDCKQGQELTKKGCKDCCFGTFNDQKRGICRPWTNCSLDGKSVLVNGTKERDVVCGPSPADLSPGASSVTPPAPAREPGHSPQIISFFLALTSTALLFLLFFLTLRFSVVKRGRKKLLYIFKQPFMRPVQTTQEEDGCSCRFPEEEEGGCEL

Columns and labels:
[1] = target: 4-1BB (antigen of the Octet kinetics) (human) (UniProt Q07011); assay: Octet Red 96 kinetics
[2] = target: human 4-1 BB-Fc protein (human) (UniProt Q07011); assay: ELISA (legend of FIGS. 1A-1C)
[3] = target: human 4-1 BB-Fc protein (human) (UniProt Q07011); assay: ELISA, plate coated with human 4-1BB-Fc
[4] = target: human 4-1 BB-Fc protein (human) (UniProt Q07011); assay: ELISA on plate-coated human 4-1BB-Fc (0.1 ug/ml), goat anti-human IgG-HRP, TMB

binding [1]: binds | binding [2]: binds | binding [3]: binds | binding [4]: binds
B1: 41B03 (antibody, human IgG4 S228P, V domains shown)
VH: EVQLLESGGGLVQPGGSLRLSCAASGFTFSSNVMNWVRQAPGKGLEWVSEISHSGSTNYNPSLKSRFTISRDNSKNTLYLQMNSLRAEDTAVYYCAVGAGNLGYWGQGTLVTVSS
VL: EIVLTQSPGTLSLSPGERATLSCQASQDISNYLNWYQQKPGQAPRLLIYGASSRATGIPDRFSGSGSGTDFTLTISRLEPEDFAVYYCQQYNSYPITFGQGTKLEIKR

binding [1]: binds
B2: 41B01 (antibody, human IgG4 S228P, lambda, V domains shown)
VH: EVQLLESGGGLVQPGGSLRLSCAASGFTFSSYDMSWVRQAPGKGLEWVSWISYSGGSIYYADSVKGRFTISRDNSKNTLYLQMNSLRAEDTAVYYCARDGQRNSMREFDYWGQGTLVTVSS
VL: QSVLTQPPSASGTPGRRVTISCSGSSSNIGNNYVTWYQQLPGTAPKLLIYADSHRPSGVPDRFSGSKSGTSASLAISGLRSEDEADYYCATWDYSLSGYVFGGGTKLTVLG

binding [1]: binds
B3: 41B02 (antibody, human IgG4 S228P, lambda, V domains shown)
VH: EVQLLESGGGLVQPGGSLRLSCAASGFTFSGYDMSWVRQAPGKGLEWVSVIYPDDGNTYYADSVKGRFTISRDNSKNTLYLQMNSLRAEDAAVYYCAKHGGQKPTTKSSSAYGMDGWGQGTLVTVSS
VL: B2 VL
